Source: the supplement of paper PMC10849652
Some of the results follow. Residues, ends and D or L forms follow the SMILES beside them. *: point of attachment. Cbz = O=C(OCc1ccccc1)*

The chains behind the UniProt entries cited, without tags or fusion partners. Where a name states a change or a piece, a line headed by the entry shows the natural chain unless it says otherwise.
UniProt Q5T7W0: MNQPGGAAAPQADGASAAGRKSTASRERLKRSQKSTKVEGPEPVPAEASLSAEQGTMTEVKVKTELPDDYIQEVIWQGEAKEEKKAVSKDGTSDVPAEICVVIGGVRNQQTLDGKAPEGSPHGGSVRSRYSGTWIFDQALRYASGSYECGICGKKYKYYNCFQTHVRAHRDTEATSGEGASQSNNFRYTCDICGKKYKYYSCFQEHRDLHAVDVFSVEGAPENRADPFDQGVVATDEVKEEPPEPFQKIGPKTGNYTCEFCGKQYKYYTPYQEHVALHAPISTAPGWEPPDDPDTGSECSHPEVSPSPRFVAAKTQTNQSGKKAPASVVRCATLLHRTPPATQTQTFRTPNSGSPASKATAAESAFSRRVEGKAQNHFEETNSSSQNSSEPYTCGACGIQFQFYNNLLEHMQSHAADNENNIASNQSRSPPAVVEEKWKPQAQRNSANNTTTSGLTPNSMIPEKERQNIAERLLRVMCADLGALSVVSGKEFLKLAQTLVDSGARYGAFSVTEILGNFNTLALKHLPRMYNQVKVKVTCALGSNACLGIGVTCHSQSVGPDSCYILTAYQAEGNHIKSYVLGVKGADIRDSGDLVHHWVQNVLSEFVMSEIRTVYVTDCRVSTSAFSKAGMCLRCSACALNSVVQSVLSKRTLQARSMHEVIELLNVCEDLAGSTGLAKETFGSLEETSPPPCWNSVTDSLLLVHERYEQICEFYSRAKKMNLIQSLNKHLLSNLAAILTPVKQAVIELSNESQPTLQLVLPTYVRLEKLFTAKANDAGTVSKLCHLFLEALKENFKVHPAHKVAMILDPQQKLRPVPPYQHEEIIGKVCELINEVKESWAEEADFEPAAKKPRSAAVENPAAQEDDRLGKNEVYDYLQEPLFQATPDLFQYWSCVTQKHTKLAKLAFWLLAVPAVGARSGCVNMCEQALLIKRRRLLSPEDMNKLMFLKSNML
UniProt Q969S3: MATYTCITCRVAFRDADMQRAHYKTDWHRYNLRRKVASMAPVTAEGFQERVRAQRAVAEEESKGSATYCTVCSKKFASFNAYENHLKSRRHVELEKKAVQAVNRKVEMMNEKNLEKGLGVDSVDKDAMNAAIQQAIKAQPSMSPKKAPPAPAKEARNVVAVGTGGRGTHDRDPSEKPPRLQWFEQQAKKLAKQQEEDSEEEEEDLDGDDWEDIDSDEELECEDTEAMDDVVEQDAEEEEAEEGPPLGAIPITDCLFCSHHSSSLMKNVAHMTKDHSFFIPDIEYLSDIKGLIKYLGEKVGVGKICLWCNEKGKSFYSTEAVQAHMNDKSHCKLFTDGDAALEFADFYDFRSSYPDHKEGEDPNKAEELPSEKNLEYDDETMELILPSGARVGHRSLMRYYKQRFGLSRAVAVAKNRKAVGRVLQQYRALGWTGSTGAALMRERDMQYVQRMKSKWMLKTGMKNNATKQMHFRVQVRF
UniProt Q9UEG4: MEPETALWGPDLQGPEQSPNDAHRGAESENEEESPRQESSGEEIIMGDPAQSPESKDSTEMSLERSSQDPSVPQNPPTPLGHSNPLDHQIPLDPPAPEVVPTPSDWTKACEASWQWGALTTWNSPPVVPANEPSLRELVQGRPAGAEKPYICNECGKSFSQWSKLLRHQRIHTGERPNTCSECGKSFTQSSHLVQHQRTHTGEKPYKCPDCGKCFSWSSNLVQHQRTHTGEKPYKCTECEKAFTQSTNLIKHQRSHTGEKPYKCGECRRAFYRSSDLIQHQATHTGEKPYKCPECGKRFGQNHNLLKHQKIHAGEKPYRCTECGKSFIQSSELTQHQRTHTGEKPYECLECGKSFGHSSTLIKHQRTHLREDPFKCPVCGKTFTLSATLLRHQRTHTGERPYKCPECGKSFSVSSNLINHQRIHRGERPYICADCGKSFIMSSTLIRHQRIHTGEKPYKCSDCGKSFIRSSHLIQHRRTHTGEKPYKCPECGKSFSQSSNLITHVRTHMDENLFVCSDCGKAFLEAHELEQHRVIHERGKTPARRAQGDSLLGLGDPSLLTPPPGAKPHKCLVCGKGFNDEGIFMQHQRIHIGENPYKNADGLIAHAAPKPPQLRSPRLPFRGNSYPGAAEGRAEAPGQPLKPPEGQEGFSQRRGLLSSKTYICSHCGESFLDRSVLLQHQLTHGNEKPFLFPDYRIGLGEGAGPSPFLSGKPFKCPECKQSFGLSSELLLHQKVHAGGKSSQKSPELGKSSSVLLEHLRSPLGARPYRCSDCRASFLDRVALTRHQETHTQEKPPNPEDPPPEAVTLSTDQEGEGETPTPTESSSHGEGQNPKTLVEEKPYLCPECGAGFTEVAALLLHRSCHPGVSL
UniProt Q14966: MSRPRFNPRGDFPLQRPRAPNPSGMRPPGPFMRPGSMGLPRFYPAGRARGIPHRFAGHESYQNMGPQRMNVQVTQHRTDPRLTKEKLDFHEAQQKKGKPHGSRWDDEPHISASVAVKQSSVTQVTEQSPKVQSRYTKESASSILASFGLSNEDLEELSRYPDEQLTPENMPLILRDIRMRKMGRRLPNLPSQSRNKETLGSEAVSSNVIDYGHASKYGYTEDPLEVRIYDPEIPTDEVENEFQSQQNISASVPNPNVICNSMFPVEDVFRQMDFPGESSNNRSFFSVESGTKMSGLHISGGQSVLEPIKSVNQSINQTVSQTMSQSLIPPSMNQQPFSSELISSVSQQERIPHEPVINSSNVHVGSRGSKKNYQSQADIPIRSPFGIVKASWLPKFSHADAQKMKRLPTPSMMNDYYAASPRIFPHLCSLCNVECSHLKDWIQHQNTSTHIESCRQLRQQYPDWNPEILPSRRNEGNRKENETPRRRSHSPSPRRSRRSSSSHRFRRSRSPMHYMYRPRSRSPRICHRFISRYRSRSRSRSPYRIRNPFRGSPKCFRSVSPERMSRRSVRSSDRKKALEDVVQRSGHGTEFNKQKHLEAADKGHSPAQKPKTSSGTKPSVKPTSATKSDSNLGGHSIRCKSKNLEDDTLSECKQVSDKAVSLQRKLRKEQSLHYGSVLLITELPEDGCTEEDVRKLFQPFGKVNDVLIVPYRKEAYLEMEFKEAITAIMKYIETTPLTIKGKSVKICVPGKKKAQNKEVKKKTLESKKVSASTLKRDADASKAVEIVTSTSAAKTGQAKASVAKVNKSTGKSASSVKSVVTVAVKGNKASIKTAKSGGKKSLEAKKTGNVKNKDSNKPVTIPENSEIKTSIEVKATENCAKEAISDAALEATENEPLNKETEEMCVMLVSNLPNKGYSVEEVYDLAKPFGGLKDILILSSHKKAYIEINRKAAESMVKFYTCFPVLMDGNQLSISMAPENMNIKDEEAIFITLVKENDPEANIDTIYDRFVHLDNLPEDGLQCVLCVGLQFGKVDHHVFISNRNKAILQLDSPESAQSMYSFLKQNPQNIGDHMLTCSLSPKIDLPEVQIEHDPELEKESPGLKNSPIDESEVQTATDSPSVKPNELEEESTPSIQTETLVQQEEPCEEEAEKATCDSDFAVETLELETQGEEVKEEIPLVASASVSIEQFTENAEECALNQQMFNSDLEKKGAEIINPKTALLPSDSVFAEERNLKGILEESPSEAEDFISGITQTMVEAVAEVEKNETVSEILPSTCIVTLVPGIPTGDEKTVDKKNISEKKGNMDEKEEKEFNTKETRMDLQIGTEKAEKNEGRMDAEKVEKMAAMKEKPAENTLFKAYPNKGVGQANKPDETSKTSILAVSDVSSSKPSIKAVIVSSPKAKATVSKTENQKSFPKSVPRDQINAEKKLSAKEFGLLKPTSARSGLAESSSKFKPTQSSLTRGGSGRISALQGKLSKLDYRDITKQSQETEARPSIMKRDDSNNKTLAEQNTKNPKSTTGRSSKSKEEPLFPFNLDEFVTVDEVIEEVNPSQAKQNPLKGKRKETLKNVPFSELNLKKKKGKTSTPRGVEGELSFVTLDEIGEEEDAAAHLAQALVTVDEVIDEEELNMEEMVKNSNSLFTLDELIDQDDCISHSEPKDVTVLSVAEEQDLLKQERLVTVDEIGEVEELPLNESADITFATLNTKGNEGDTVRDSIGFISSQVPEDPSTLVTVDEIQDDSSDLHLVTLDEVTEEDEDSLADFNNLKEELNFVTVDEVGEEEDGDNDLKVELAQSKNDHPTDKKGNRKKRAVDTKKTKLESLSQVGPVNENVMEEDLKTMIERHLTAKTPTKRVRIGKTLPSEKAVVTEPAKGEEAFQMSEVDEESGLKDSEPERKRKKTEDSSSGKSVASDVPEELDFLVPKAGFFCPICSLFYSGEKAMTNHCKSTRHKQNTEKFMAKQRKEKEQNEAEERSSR
UniProt Q5VV52: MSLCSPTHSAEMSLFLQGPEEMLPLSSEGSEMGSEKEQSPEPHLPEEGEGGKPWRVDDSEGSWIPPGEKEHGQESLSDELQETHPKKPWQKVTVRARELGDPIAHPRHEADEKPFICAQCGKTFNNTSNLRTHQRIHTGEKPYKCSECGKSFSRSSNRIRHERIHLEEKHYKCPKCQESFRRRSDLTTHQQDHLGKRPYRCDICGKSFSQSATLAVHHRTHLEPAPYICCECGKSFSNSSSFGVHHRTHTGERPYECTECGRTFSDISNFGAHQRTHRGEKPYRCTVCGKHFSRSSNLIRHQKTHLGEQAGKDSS
UniProt Q9Y5V0: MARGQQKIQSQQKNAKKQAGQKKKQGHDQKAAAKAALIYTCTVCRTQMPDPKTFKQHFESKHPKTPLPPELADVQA
UniProt Q8NDX6: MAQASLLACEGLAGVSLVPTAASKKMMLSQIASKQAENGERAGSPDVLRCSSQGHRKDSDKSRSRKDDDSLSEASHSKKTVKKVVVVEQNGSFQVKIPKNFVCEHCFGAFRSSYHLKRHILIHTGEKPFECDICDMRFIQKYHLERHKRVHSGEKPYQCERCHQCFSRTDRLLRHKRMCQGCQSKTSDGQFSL
UniProt Q9H5H4: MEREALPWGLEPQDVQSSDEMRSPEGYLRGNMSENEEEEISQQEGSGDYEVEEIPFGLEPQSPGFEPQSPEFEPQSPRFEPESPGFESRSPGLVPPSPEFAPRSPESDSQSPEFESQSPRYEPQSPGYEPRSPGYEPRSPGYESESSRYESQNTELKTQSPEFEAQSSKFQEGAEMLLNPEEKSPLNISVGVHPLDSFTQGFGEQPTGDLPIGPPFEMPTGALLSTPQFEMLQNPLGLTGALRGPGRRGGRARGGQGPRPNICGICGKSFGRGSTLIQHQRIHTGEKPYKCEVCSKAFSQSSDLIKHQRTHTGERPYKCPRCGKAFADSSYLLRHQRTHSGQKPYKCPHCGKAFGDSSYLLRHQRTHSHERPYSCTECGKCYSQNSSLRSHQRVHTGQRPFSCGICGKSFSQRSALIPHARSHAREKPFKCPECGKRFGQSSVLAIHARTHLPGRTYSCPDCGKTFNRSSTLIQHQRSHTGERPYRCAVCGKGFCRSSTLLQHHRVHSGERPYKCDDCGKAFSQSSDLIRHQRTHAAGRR
UniProt Q9H7X3: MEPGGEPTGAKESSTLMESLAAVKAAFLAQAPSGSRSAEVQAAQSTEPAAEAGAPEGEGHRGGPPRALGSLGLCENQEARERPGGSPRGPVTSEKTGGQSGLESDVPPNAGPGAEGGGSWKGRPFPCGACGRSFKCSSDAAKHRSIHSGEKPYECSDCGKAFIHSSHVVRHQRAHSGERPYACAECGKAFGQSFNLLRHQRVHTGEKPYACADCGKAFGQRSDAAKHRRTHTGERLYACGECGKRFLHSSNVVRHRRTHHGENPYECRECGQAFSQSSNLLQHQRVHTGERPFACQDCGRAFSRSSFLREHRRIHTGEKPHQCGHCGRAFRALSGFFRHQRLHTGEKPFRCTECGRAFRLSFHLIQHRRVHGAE
UniProt Q96BR6: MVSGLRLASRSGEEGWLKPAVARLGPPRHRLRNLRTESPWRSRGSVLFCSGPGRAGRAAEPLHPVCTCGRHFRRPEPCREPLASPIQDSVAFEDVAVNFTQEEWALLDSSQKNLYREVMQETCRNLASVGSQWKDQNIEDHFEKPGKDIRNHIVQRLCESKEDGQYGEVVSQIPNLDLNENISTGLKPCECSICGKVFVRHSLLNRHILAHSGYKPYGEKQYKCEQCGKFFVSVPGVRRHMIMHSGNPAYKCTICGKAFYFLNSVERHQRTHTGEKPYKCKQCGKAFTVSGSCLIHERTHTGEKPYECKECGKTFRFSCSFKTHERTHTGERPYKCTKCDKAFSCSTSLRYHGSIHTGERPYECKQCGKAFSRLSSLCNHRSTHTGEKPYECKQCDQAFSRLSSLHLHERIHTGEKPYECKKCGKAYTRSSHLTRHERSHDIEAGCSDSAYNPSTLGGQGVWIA
UniProt P0C7X2: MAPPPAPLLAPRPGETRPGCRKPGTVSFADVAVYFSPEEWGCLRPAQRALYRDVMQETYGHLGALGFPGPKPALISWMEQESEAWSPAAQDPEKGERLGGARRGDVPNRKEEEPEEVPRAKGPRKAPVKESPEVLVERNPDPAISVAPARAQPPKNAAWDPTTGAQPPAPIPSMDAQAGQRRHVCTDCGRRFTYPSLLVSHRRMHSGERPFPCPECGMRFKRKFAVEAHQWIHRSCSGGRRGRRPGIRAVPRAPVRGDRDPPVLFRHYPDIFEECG

Assays:
Test in all cases: log2 fold change, soluble protein after heating vs DMSO (PISA); higher = thermal stabilisation; K562 cells, 10 uM, 30 min; active = over 0.2 and 3.5 SD of the protein, either way, in both replicates (recomputed)
ZNF593 = ZNF593 (UniProt O00488)
Procedure, shortened: (§1)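 Values are thermal stability changes relative to control samples and are taken from duplicates. They are stated as log2 fold changes. Before quantification by TMTpro 16plex LC-MS/MS with equalised channel sums, K562 cells at 2×10^6 cells/mL were treated with 10 μM compound for 30 min, heated in aliquots for 3 min across 48°C-58°C, pooled, extracted in PBS with 0.5% NP-40 at 4°C, and centrifuged at 21,000xg for 90 min to give the soluble supernatant.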

ZNF598 = ZNF598 (UniProt Q86UK7)
Procedure, shortened: as §1

ZNF609 = ZNF609 (UniProt O15014)
Procedure, shortened: as §1

ZNF618 = ZNF618 (UniProt Q5T7W0)
Procedure, shortened: as §1

ZNF618 isoform 2 = ZNF618 isoform 2 (UniProt Q5T7W0)
Procedure, shortened: as §1

ZNF622 = ZNF622 (UniProt Q969S3)
Procedure, shortened: as §1

ZNF629 = ZNF629 (UniProt Q9UEG4)
Procedure, shortened: as §1

ZNF638 = ZNF638 (UniProt Q14966)
Procedure, shortened: as §1

ZNF639 = ZNF639 (UniProt Q9UID6)
Procedure, shortened: as §1

ZNF644 = ZNF644 (UniProt Q9H582)
Procedure, shortened: as §1

ZNF672 = ZNF672 (UniProt Q499Z4)
Procedure, shortened: as §1

ZNF691 = ZNF691 (UniProt Q5VV52)
Procedure, shortened: as §1

ZNF706 = ZNF706 (UniProt Q9Y5V0)
Procedure, shortened: as §1

ZNF74 isoform 5 = ZNF74 isoform 5 (UniProt Q16587)
Procedure, shortened: as §1

ZNF740 = ZNF740 (UniProt Q8NDX6)
Procedure, shortened: as §1

ZNF768 = ZNF768 (UniProt Q9H5H4)
Procedure, shortened: as §1

ZNF696 = ZNF696 (UniProt Q9H7X3)
Procedure, shortened: as §1

ZNF669 = ZNF669 (UniProt Q96BR6)
Procedure, shortened: as §1

ZNF688 = ZNF688 (UniProt P0C7X2)
Procedure, shortened: as §1

Measured: log2 fold change

CN(C)CC(=O)Nc1ccc2[nH]c(=O)c3ccccc3c2c1
inactive: ZNF593 = -0.118 | ZNF598 = 0.077 | ZNF609 = 0.047 | ZNF618 = 0.001 | ZNF618 isoform 2 = -0.061 | ZNF622 = -0.024 | ZNF629 = -0.18 | ZNF638 = -0.05 | ZNF639 = 0.063 | ZNF644 = -0.119 | ZNF672 = -0.005 | ZNF691 = 0.027 | ZNF706 = -0.034 | ZNF74 isoform 5 = -0.035 | ZNF740 = -0.081 | ZNF768 = -0.185

COC(=O)N[C@@H](C)CNc1nccc(-c2cn(C(C)C)nc2-c2cc(Cl)cc(NS(C)(=O)=O)c2F)n1 [encorafenib]
inactive: ZNF593 = 0.124 | ZNF598 = 0.003 | ZNF609 = -0.082 | ZNF618 = 0.003 | ZNF618 isoform 2 = 0.1 | ZNF622 = 0.01 | ZNF629 = 0.183 | ZNF638 = -0.055 | ZNF639 = -0.059 | ZNF672 = 0.101 | ZNF691 = -0.022 | ZNF706 = -0.018 | ZNF74 isoform 5 = -0.089 | ZNF740 = -0.074 | ZNF768 = 0.104

Fc1ccc(Cl)cc1-c1nc(Nc2ccncc2)c2nccnc2n1
inactive: ZNF593 = -0.287 | ZNF598 = -0.029 | ZNF609 = -0.302 | ZNF618 = 0.128 | ZNF618 isoform 2 = 0.017 | ZNF622 = 0.038 | ZNF629 = -0.364 | ZNF638 = -0.029 | ZNF644 = -0.079 | ZNF691 = -0.03 | ZNF706 = 0.006 | ZNF74 isoform 5 = -0.147 | ZNF740 = -0.313 | ZNF768 = -0.395

O=C(Nc1cccc(Nc2ncc(Br)c(NCCc3cnc[nH]3)n2)c1)N1CCCC1
inactive: ZNF593 = 0.13 | ZNF598 = -0.07 | ZNF609 = -0.035 | ZNF618 = -0.019 | ZNF618 isoform 2 = -0.046 | ZNF622 = 0.022 | ZNF629 = -0.057 | ZNF638 = 0.049 | ZNF639 = -0.19 | ZNF672 = -0.018 | ZNF691 = -0.002 | ZNF706 = -0.031 | ZNF768 = 0.111

3 structures already listed, ordered by SMILES length, rising.
Fc1ccc(Cl)cc1-c1nc(Nc2ccncc2)c2nccnc2n1
inactive: ZNF593 = -0.287 | ZNF598 = -0.029 | ZNF609 = -0.302 | ZNF618 = 0.128 | ZNF618 isoform 2 = 0.017 | ZNF622 = 0.038 | ZNF629 = -0.364 | ZNF638 = -0.029 | ZNF644 = -0.079 | ZNF691 = -0.03 | ZNF706 = 0.006 | ZNF74 isoform 5 = -0.147 | ZNF740 = -0.313 | ZNF768 = -0.395

O=C(Nc1cccc(Nc2ncc(Br)c(NCCc3cnc[nH]3)n2)c1)N1CCCC1
inactive: ZNF593 = 0.13 | ZNF598 = -0.07 | ZNF609 = -0.035 | ZNF618 = -0.019 | ZNF618 isoform 2 = -0.046 | ZNF622 = 0.022 | ZNF629 = -0.057 | ZNF638 = 0.049 | ZNF639 = -0.19 | ZNF672 = -0.018 | ZNF691 = -0.002 | ZNF706 = -0.031 | ZNF768 = 0.111

COC(=O)N[C@@H](C)CNc1nccc(-c2cn(C(C)C)nc2-c2cc(Cl)cc(NS(C)(=O)=O)c2F)n1 [encorafenib]
inactive: ZNF593 = 0.124 | ZNF598 = 0.003 | ZNF609 = -0.082 | ZNF618 = 0.003 | ZNF618 isoform 2 = 0.1 | ZNF622 = 0.01 | ZNF629 = 0.183 | ZNF638 = -0.055 | ZNF639 = -0.059 | ZNF672 = 0.101 | ZNF691 = -0.022 | ZNF706 = -0.018 | ZNF74 isoform 5 = -0.089 | ZNF740 = -0.074 | ZNF768 = 0.104

Following part.

CN1CCc2c(c3ccccc3n2Cc2ccc(C(=O)NO)cc2)C1 [Tubastatin A]
inactive: ZNF593 = 0.064 | ZNF598 = 0 | ZNF609 = -0.126 | ZNF618 = 0.023 | ZNF618 isoform 2 = -0.009 | ZNF622 = 0.018 | ZNF629 = 0.05 | ZNF638 = -0.004 | ZNF639 = 0.155 | ZNF672 = -0.021 | ZNF691 = -0.025 | ZNF706 = 0.081 | ZNF768 = 0.162

CC[C@@H]1C(=O)N(C)c2cnc(Nc3ccc(C(=O)NC4CCN(C)CC4)cc3OC)nc2N1C1CCCC1
inactive: ZNF593 = 0.152 | ZNF598 = -0.037 | ZNF609 = 0.047 | ZNF618 = -0.019 | ZNF618 isoform 2 = -0.119 | ZNF622 = 0.069 | ZNF629 = 0.134 | ZNF638 = -0.02 | ZNF639 = -0.382 | ZNF672 = 0.202 | ZNF691 = 0.056 | ZNF706 = 0.025 | ZNF74 isoform 5 = -0.192 | ZNF740 = 0.001 | ZNF768 = 0.127

CCN(CC)Cc1ccc2cc(COC(=O)Nc3ccc(C(=O)NO)cc3)ccc2c1 [givinostat]
inactive: ZNF593 = 0.021 | ZNF598 = 0.036 | ZNF609 = 0.063 | ZNF618 = 0.004 | ZNF618 isoform 2 = 0.066 | ZNF622 = -0.004 | ZNF629 = 0.051 | ZNF638 = 0.099 | ZNF672 = 0.031 | ZNF691 = -0.092 | ZNF706 = -0.022 | ZNF74 isoform 5 = 0.01 | ZNF768 = 0.062

Cc1ccc(NC(=O)c2cccc(C(C)(C)C#N)c2)cc1Nc1ccc2ncn(C)c(=O)c2c1
inactive: ZNF593 = 0.016 | ZNF598 = -0.002 | ZNF609 = -0.046 | ZNF618 = 0.03 | ZNF618 isoform 2 = 0.012 | ZNF622 = 0.048 | ZNF629 = -0.059 | ZNF638 = -0.03 | ZNF639 = -0.205 | ZNF644 = 0.215 | ZNF672 = 0.102 | ZNF691 = -0.041 | ZNF696 = -0.029 | ZNF706 = -0.011 | ZNF74 isoform 5 = 0.164 | ZNF768 = 0.008

NC1(Cc2ccc(Cl)cc2)CCN(c2ncnc3[nH]ccc23)CC1
active: ZNF622 = -0.263
inactive: ZNF593 = -0.093 | ZNF598 = 0.08 | ZNF609 = -0.115 | ZNF618 = 0.072 | ZNF618 isoform 2 = 0.025 | ZNF629 = 0.006 | ZNF638 = -0.014 | ZNF639 = -0.017 | ZNF672 = 0.138 | ZNF691 = -0.014 | ZNF706 = 0.074 | ZNF768 = -0.096

C[C@@H]1COCCN1c1cc(C2(S(C)(=O)=O)CC2)nc(-c2cccc3[nH]ccc23)n1
inactive: ZNF593 = -0.307 | ZNF598 = 0.028 | ZNF609 = -0.064 | ZNF618 = 0.018 | ZNF618 isoform 2 = -0.131 | ZNF622 = 0.067 | ZNF629 = -0.281 | ZNF638 = -0.001 | ZNF644 = 0.039 | ZNF691 = -0.069 | ZNF706 = -0.041 | ZNF74 isoform 5 = 0.355 | ZNF740 = 0 | ZNF768 = -0.382

NC(=O)c1ccc2nc(-c3ccc(Oc4ccc(Cl)cc4)cc3)[nH]c2c1
inactive: ZNF593 = 0.016 | ZNF598 = -0.012 | ZNF609 = 0.029 | ZNF618 = 0.018 | ZNF618 isoform 2 = -0.077 | ZNF622 = 0.007 | ZNF629 = -0.092 | ZNF638 = 0.006 | ZNF672 = 0.06 | ZNF691 = 0.046 | ZNF706 = -0.012 | ZNF74 isoform 5 = -0.018 | ZNF768 = -0.061

NC(=O)Nc1cc(-c2cccc(F)c2)sc1C(=O)N[C@H]1CCCNC1
inactive: ZNF593 = -0.071 | ZNF598 = 0.001 | ZNF609 = 0.061 | ZNF618 = -0.065 | ZNF618 isoform 2 = 0.105 | ZNF622 = -0.028 | ZNF629 = 0.142 | ZNF638 = 0.029 | ZNF639 = 0.067 | ZNF644 = -0.024 | ZNF672 = -0.016 | ZNF691 = 0.058 | ZNF696 = 0.097 | ZNF706 = -0.076 | ZNF74 isoform 5 = -0.051 | ZNF768 = 0.133

O=C1c2ccccc2-c2n[nH]c3cccc1c23
inactive: ZNF593 = -0.097 | ZNF598 = 0.025 | ZNF609 = 0.002 | ZNF618 = -0.036 | ZNF622 = 0.042 | ZNF629 = -0.011 | ZNF638 = -0.037 | ZNF639 = -0.108 | ZNF669 = -0.065 | ZNF672 = -0.006 | ZNF691 = -0.135 | ZNF706 = -0.016 | ZNF740 = 0.228 | ZNF768 = -0.046

Cc1ccc(C(=O)N(CCCN)[C@@H](c2nc3cc(Cl)ccc3c(=O)n2Cc2ccccc2)C(C)C)cc1 [ispinesib]
inactive: ZNF593 = -0.156 | ZNF598 = -0.057 | ZNF609 = 0.014 | ZNF618 = -0.105 | ZNF618 isoform 2 = 0.095 | ZNF622 = 0.062 | ZNF629 = -0.187 | ZNF638 = -0.127 | ZNF672 = -0.258 | ZNF691 = 0.08 | ZNF706 = 0.008 | ZNF740 = -0.083 | ZNF768 = -0.196

Cn1cc(-c2ccc3nnc(C(F)(F)c4ccc5ncccc5c4)n3n2)cn1
inactive: ZNF593 = -0.118 | ZNF598 = 0.021 | ZNF609 = -0.286 | ZNF618 = -0.039 | ZNF618 isoform 2 = 0.143 | ZNF622 = 0.024 | ZNF629 = -0.293 | ZNF638 = 0.007 | ZNF672 = -0.034 | ZNF691 = -0.138 | ZNF706 = 0.017 | ZNF740 = -0.019 | ZNF768 = -0.058

CC(C)C[C@@H](C=O)NC(=O)[C@H](CC(C)C)NC(=O)[C@H](CC(C)C)NC(=O)OCc1ccccc1 (Cbz-Leu-Leu-Leu-aldehyde)
inactive: ZNF593 = 0.129 | ZNF598 = 0.005 | ZNF609 = 0.031 | ZNF618 = 0.052 | ZNF618 isoform 2 = 0.273 | ZNF622 = -0.036 | ZNF629 = 0.173 | ZNF638 = 0.067 | ZNF672 = 0.051 | ZNF691 = 0.045 | ZNF706 = -0.016 | ZNF740 = -0.009 | ZNF768 = 0.272

NC(=O)c1cnc(N[C@@H]2CCCC[C@@H]2N)nc1Nc1cccc(-n2nccn2)c1
inactive: ZNF593 = -0.025 | ZNF598 = 0.008 | ZNF609 = 0.015 | ZNF618 = -0.034 | ZNF622 = -0.002 | ZNF629 = 0.141 | ZNF638 = 0.029 | ZNF639 = -0.127 | ZNF669 = 0.009 | ZNF672 = 0.172 | ZNF691 = -0.155 | ZNF706 = 0.05 | ZNF740 = -0.084 | ZNF768 = 0.064

Cn1cncc1[C@@](N)(c1ccc(Cl)cc1)c1ccc2c(c1)c(-c1cccc(Cl)c1)cc(=O)n2C [tipifarnib]
inactive: ZNF593 = 0.007 | ZNF598 = -0.042 | ZNF609 = 0 | ZNF618 = 0.026 | ZNF618 isoform 2 = 0.135 | ZNF622 = -0.048 | ZNF629 = 0.025 | ZNF669 = -0.055 | ZNF688 = -0.163 | ZNF691 = 0.057 | ZNF706 = 0.009 | ZNF74 isoform 5 = -0.425 | ZNF740 = 0.014 | ZNF768 = 0.173

Cc1ccc(Sc2cncc3sc(C(N)=O)cc23)cc1
inactive: ZNF593 = -0.127 | ZNF598 = 0.015 | ZNF609 = -0.045 | ZNF618 = 0.019 | ZNF618 isoform 2 = -0.015 | ZNF622 = -0.022 | ZNF629 = -0.054 | ZNF669 = -0.111 | ZNF688 = -0.026 | ZNF691 = 0.003 | ZNF706 = -0.01 | ZNF74 isoform 5 = 0.193 | ZNF740 = 0.033 | ZNF768 = -0.075
